Common to all, as to experiment: pull-down
Assay [1] deals with GST-tagged Drosophila CtBP (Drosophila melanogaster) (UniProt O46036).
In assay [2] the target is GST-Su(H) fusion protein (Drosophila melanogaster Suppressor of Hairless) (Drosophila melanogaster) (UniProt P28159).
Assay [3] has as its target GST-tagged Drosophila Groucho (Drosophila melanogaster) (UniProt P16371).

Sequences of proteins named here, by UniProt entry; tags and fusion partners are left off.
UniProt O46036: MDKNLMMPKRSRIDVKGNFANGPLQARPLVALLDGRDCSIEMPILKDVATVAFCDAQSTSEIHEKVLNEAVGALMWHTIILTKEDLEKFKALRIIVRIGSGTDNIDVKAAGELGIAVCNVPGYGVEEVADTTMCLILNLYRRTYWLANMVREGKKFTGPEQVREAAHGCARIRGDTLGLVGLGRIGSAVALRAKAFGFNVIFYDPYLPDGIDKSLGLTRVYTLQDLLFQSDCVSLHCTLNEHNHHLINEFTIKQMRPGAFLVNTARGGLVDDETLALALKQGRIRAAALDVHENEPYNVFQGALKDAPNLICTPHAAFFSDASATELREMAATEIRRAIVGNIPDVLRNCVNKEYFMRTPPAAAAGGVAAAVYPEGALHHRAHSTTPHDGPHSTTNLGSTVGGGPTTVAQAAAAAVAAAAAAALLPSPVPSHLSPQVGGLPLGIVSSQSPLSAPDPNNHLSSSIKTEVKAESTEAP
UniProt P28159: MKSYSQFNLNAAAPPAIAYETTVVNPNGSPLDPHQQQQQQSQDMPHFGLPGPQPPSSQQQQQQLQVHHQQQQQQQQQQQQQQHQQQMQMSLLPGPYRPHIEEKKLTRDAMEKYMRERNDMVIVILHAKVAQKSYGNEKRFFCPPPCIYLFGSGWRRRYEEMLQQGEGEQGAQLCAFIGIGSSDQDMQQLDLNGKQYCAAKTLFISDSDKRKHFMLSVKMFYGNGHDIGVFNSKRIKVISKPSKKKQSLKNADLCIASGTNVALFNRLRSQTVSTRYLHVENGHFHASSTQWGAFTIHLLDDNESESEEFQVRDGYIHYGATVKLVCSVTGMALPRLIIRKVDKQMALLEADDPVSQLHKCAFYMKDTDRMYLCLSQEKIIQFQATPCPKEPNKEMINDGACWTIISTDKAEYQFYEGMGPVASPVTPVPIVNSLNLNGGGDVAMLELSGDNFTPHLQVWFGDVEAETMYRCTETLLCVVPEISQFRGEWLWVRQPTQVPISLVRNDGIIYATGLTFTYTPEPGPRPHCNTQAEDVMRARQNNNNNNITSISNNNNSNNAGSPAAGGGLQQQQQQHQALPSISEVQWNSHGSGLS
UniProt P16371: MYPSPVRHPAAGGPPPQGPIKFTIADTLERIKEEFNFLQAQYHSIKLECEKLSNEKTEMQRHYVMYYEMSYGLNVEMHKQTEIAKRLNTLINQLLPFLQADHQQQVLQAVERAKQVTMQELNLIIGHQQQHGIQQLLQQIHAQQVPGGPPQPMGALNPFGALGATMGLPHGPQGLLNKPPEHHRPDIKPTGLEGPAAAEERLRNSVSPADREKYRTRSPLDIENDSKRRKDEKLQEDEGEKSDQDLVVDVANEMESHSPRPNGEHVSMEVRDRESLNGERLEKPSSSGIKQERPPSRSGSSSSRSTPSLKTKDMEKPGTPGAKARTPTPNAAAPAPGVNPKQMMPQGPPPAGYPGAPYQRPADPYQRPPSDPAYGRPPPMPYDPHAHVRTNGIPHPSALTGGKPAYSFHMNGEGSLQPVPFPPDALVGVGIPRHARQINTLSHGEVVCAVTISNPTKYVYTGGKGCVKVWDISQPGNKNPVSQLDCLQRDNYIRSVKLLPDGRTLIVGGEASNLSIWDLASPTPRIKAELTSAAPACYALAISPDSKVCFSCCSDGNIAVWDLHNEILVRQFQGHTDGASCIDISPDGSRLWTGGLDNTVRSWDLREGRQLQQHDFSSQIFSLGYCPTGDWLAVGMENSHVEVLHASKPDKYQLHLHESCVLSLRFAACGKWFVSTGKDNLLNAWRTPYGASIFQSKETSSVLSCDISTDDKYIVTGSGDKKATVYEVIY

No constants are given. Whether binding was seen depends on the method and setting. Binding seen in cells or lysates may run through a third protein. Some results given as binding are weak or reduced against the parent protein; the word gives no strength. Where a sequence is shown, tags or fusion partners need not be part of it.

B1: His-tagged 116-aa segment of Strigamia maritima Su(H) (exons 2 and 3), wild type (domain or fragment)
chain: GQYDYPPPLASTYSREADLWNVNLATYSSAPTTCTGATPAPSVTGFYAQATGSNSVSPSSVSLTTLTPHFADNHPVDLSNSHRGEGGHLDLVRFQSDRVDAYKHANGLSVHIPDHHA
On to B1, for which, in assay [1], the binding result is reported as “binds”.

B2: His-tagged Drosophila melanogaster Hairless residues 192-389, wild type (domain or fragment)
chain: AVVAAAAGTAKIGKGSNSGGSFDMGRTPISTHGNNSWGGYGGRLQFFKDGKFILELARSKDGDKSGWVSVTRKTFRPPSAATSATVTPTSAVTTAYPKNENSTSLSFSDDNSSIQSSPWQRDQPWKQSRPRRGISKELSLFFHRPRNSTLGRAALRTAARKRRRPHEPLTTSEDQQPIFATAIKAENGDDTLKAEAAE
Take B2: the binding entry in assay [2] is recorded as “binds”.

B3: His-tagged HLHmβ with the WRPW motif replaced by the … motif of Strigamia maritima Su(H) (protein, UniProt Q01069 1-191)
chain: MVLEMEMSKTYQYRKVMKPMLERKRRARINKCLDELKDIMVECLTQEGEHITRLEKADILELTVEHMKKLRAQKQLRLSSVTGGVSPSADPKLSIAESFRAGYVHAANEVSKTLAAVPGVSVDLGTQLMSHLGHRLNYLQVVVPSLPIGVPLQAPVEDQAMVTPPPSECDSLESGACSPAPSEASSTSGPMGSLTPPDKV
As to B3, in assay [3], the binding entry is on record as “binds”.

B4: His-tagged Parasteatoda tepidariorum cS-CAP residues 233-432, wild type (domain or fragment)
chain: TVNTEDPPKDSINFLDHSRVTDPCSAASETSLPQDVPATSTVGSLKFFLGGRLVLKLNAQQDGGSGNKCQWVQSNDLPKHSNHNKKDKHKKKFAPYSYSSSGTQKPLKKGDDTSAVPDCDPSGIKKPRLKEYETSENSALGLLLCSSSWTPPVADGQESIDVDDTSSKTSEGYISPILSNNSRTSKIDTIKHDFASNPNT
Take B4: the binding result in assay [2] was “binds”.

B5: His-tagged truncated HLHmβ lacking the WRPW motif (domain or fragment, UniProt Q01069 1-191)
chain: MVLEMEMSKTYQYRKVMKPMLERKRRARINKCLDELKDIMVECLTQEGEHITRLEKADILELTVEHMKKLRAQKQLRLSSVTGGVSPSADPKLSIAESFRAGYVHAANEVSKTLAAVPGVSVDLGTQLMSHLGHRLNYLQVVVPSLPIGVPLQAPVEDQAMVTPPPSECDSLESGACSPAPSEASSTSGPM
As for B5, the binding result in assay [3] is recorded as “no binding”.
